# Reference: the supplement of paper PMC8728848
# This is one part of the list.
# B1: PX14379D-pdi-530-26-530 (Parabacteroides distasonis) (protein)
# chain: DETVYDKLPADDFGQSTAELNALIGNSHNTMKKFWTEYMHLSECSGSMAVTPTRRGGDWYDGGQYREIYMHTWTSQTSRVKSAWKAATEAIGTCNEAIRKLQNSEILTEEEKAQDVADLRGVRAFWIYVMMDYWGNIPLLTEFHPTDKVFPGNSSRQEVFDWLIQEVEEIKDICPPATTENYGSFTQGAAYSLLAKLYLNAEAWGVTFSGNAYQKVIDNCDKVMAMGYILEPNWKDNFSVTNENSKEAILAATFSSSDTGNDGNVKNELHNNTLHYKDYLSLGITASGTWNGICAQPEYVRLFDEEDARLDGTFLTGLMIDKSTGKPIMTDHNNELNHTIDVNMIPGMEYDGTNWSAVEQHDGARCFKWEFASDLTSSMGNDFHIFRLADIYLMKAEALLRGGGSVSEATALVNTIRERGYGNSDHNYATVTLKEVQLERRLELAWEVYSRQDDIRFGCFTTGMWPQSNCERKADDYLKLLPVSQDAWQVNPNLKQNPGYAAFSK
# Legend:
# Experiment in all cases: glycan array binding signal (z-score within array); higher = stronger binding
# Settings in all cases: glycan notation: IUPAC condensed, linker removed
# [1] = target: Neu5Ac(a2-3)Gal(b1-4)GlcNAc(b1-3)Gal(b1-4)GlcNAc(b1-3)Gal(b1-4)GlcNAc
# In short: (§1)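 Columns mapping to the same glycan were averaged after glycan names were converted to IUPAC-condensed notation. The data come from 3228 arrays in the Consortium for Functional Glycomics database, limited to those with an available protein sequence. Binding is reported as a within-array Z-score averaged across arrays of one protein sequence and across linkers.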
# [2] = target: Neu5Ac(a2-3)Gal(b1-4)GlcNAc(b1-3)Gal(b1-4)GlcNAc(b1-3)Gal(b1-4)GlcNAc(b1-2)Man(a1-3)[Neu5Ac(a2-3)Gal(b1-4)GlcNAc(b1-3)Gal(b1-4)GlcNAc(b1-3)Gal(b1-4)GlcNAc(b1-2)Man(a1-6)]GalNAc
# In short: as §1
# [3] = target: Neu5Ac(a2-3)Gal(b1-4)GlcNAc(b1-3)Gal(b1-4)GlcNAc(b1-3)GalNAc
# In short: as §1
# [4] = target: Neu5Ac(a2-3)Gal(b1-4)GlcNAc(b1-3)Gal(b1-4)GlcNAc(b1-3)[Neu5Ac(a2-3)Gal(b1-4)GlcNAc(b1-3)Gal(b1-4)GlcNAc(b1-6)]GalNAc
# In short: as §1
# [5] = target: Neu5Ac(a2-3)Gal(b1-4)GlcNAc(b1-3)Gal(b1-4)GlcNAc(b1-6)[Gal(b1-3)]GalNAc
# In short: as §1
# [6] = target: Neu5Ac(a2-3)Gal(b1-4)GlcNAc(b1-3)Gal(b1-4)[Fuc(a1-3)]GlcNAc
# In short: as §1
# [7] = target: Neu5Ac(a2-3)Gal(b1-4)GlcNAc(b1-3)GalNAc
# In short: as §1
# [8] = target: Neu5Ac(a2-3)Gal(b1-4)GlcNAc(b1-3)[Neu5Ac(a2-3)Gal(b1-4)GlcNAc(b1-6)]GalNAc
# In short: as §1
# [9] = target: Neu5Ac(a2-3)Gal(b1-4)GlcNAc(b1-6)GalNAc
# In short: as §1
# [10] = target: Neu5Ac(a2-3)Gal(b1-4)GlcNAc(b1-6)[Gal(b1-3)]GalNAc
# In short: as §1
# [11] = target: Neu5Ac(a2-3)Gal(b1-4)GlcNAc(b1-6)[Neu5Ac(a2-3)Gal(b1-3)]GalNAc
# In short: as §1
# [12] = target: Neu5Ac(a2-3)Gal(b1-4)GlcNAc6S
# In short: as §1
# [13] = target: Neu5Ac(a2-3)Gal(b1-4)[Fuc(a1-3)]GlcNAc
# In short: as §1
# [14] = target: Neu5Ac(a2-3)Gal(b1-4)[Fuc(a1-3)]GlcNAc(b1-2)Man
# In short: as §1
# [15] = target: Neu5Ac(a2-3)Gal(b1-4)[Fuc(a1-3)]GlcNAc(b1-3)Gal
# In short: as §1
# [16] = target: Neu5Ac(a2-3)Gal(b1-4)[Fuc(a1-3)]GlcNAc(b1-3)Gal(b1-4)GlcNAc
# In short: as §1
# [17] = target: Neu5Ac(a2-3)Gal(b1-4)[Fuc(a1-3)]GlcNAc(b1-3)Gal(b1-4)[Fuc(a1-3)]GlcNAc(b1-3)Gal(b1-4)[Fuc(a1-3)]GlcNAc
# In short: as §1
# [18] = target: Neu5Ac(a2-3)Gal(b1-4)[Fuc(a1-3)]GlcNAc(b1-3)GalNAc
# In short: as §1
# [19] = target: Neu5Ac(a2-3)Gal(b1-4)[Fuc(a1-3)]GlcNAc(b1-6)[Gal(b1-3)]GalNAc
# In short: as §1
# [20] = target: Neu5Ac(a2-3)Gal(b1-4)[Fuc(a1-3)]GlcNAc(b1-6)[Neu5Ac(a2-3)Gal(b1-3)]GalNAc
# In short: as §1
# [21] = target: Neu5Ac(a2-3)Gal(b1-4)[Fuc(a1-3)]GlcNAc6S
# In short: as §1
# [22] = target: Neu5Ac(a2-3)Gal6S(b1-4)GlcNAc
# In short: as §1
# [23] = target: Neu5Ac(a2-3)Gal6S(b1-4)[Fuc(a1-3)]GlcNAc
# In short: as §1
# Neu5Ac(a2-3)GalNAc = target: Neu5Ac(a2-3)GalNAc
# In short: as §1
# [24] = target: Neu5Ac(a2-3)GalNAc(b1-4)GlcNAc
# In short: as §1
# [25] = target: Neu5Ac(a2-3)[GalNAc(b1-4)]Gal(b1-4)Glc
# In short: as §1
# [26] = target: Neu5Ac(a2-3)[GalNAc(b1-4)]Gal(b1-4)GlcNAc
# In short: as §1
# [27] = target: Neu5Ac(a2-3)[GalNAc(b1-4)]Gal(b1-4)GlcNAc(b1-3)GalNAc
# In short: as §1
# [28] = target: Neu5Ac(a2-3)[Neu5Ac(a2-6)]GalNAc
# In short: as §1
# Neu5Ac(a2-6)Gal = target: Neu5Ac(a2-6)Gal
# In short: as §1
# [29] = target: Neu5Ac(a2-6)Gal(b1-3)GlcNAc(b1-3)[Gal(b1-4)GlcNAc(b1-6)]Gal(b1-4)Glc
# In short: as §1
# Neu5Ac(a2-6)Gal(b1-4)Glc = target: Neu5Ac(a2-6)Gal(b1-4)Glc
# In short: as §1
# [30] = target: Neu5Ac(a2-6)Gal(b1-4)GlcNAc
# In short: as §1
# [31] = target: Neu5Ac(a2-6)Gal(b1-4)GlcNAc(b1-2)Man
# In short: as §1
# [32] = target: Neu5Ac(a2-6)Gal(b1-4)GlcNAc(b1-2)Man(a1-3)Man(b1-4)GlcNAc(b1-4)GlcNAc
# In short: as §1
# [33] = target: Neu5Ac(a2-6)Gal(b1-4)GlcNAc(b1-2)Man(a1-3)[Gal(b1-4)GlcNAc(b1-2)Man(a1-6)]Man(b1-4)GlcNAc(b1-4)GlcNAc
# In short: as §1
# [34] = target: Neu5Ac(a2-6)Gal(b1-4)GlcNAc(b1-2)Man(a1-3)[GlcNAc(b1-2)Man(a1-6)]Man(b1-4)GlcNAc(b1-4)GlcNAc
# In short: as §1
# [35] = target: Neu5Ac(a2-6)Gal(b1-4)GlcNAc(b1-2)Man(a1-3)[GlcNAc(b1-4)][Neu5Ac(a2-6)Gal(b1-4)GlcNAc(b1-2)Man(a1-6)]Man(b1-4)GlcNAc(b1-4)GlcNAc
# In short: as §1
binder,measurement,setting,value
B1,glycan array binding signal (z-score),[1],1.36
same,glycan array binding signal (z-score),[2],1
same,glycan array binding signal (z-score),[3],-0.455
same,glycan array binding signal (z-score),[4],-0.549
same,glycan array binding signal (z-score),[5],-0.749
same,glycan array binding signal (z-score),[6],0.466
same,glycan array binding signal (z-score),[7],-0.3
same,glycan array binding signal (z-score),[8],0.434
same,glycan array binding signal (z-score),[9],-0.342
same,glycan array binding signal (z-score),[10],-0.321
same,glycan array binding signal (z-score),[11],-0.38
same,glycan array binding signal (z-score),[12],-0.163
same,glycan array binding signal (z-score),[13],-0.312
same,glycan array binding signal (z-score),[14],0.602
same,glycan array binding signal (z-score),[15],-1.4
same,glycan array binding signal (z-score),[16],1.87
same,glycan array binding signal (z-score),[17],-0.094
same,glycan array binding signal (z-score),[18],0.974
same,glycan array binding signal (z-score),[19],0.961
same,glycan array binding signal (z-score),[20],0.397
same,glycan array binding signal (z-score),[21],-0.739
same,glycan array binding signal (z-score),[22],-1.11
same,glycan array binding signal (z-score),[23],-0.382
same,glycan array binding signal (z-score),Neu5Ac(a2-3)GalNAc,0.813
same,glycan array binding signal (z-score),[24],-1.02
same,glycan array binding signal (z-score),[25],-1.1
same,glycan array binding signal (z-score),[26],-0.285
same,glycan array binding signal (z-score),[27],0.45
same,glycan array binding signal (z-score),[28],-1.44
same,glycan array binding signal (z-score),Neu5Ac(a2-6)Gal,-0.05
same,glycan array binding signal (z-score),[29],-0.655
same,glycan array binding signal (z-score),Neu5Ac(a2-6)Gal(b1-4)Glc,0.207
same,glycan array binding signal (z-score),[30],-0.088
same,glycan array binding signal (z-score),[31],-1.03
same,glycan array binding signal (z-score),[32],0.147
same,glycan array binding signal (z-score),[33],0.392
same,glycan array binding signal (z-score),[34],0.474
same,glycan array binding signal (z-score),[35],0.549

# Quoted at random: 2 records from the list.
binder,measurement,setting,value
B1,glycan array binding signal (z-score),[19],0.961
same,glycan array binding signal (z-score),[22],-1.11
